These results are taken from patent US20260275395A1, “ENZYMATIC CONVERSION OF D-XYLOSE INTO D-RIBOSE AND D-RIBULOSE-5-PHOSPHATE” (priority 2022, published 2026).

In the series the test system is BpRpiB (D-ribose-5-phosphate isomerase). Put plainly: Optimal reaction temperature and pH of BpRpiB. Type of series: biochemical, Bacteroides plebeius.

B1: BpRpiB: D-ribose-5-phosphate isomerase derived from Bacteroides plebeius, SEQ ID NO: 5 (protein)
chain: MKTIGLASDHAGFELKQYVKKWLEAKGWEYKDFGTYTTDSCDYPDFAHPLALAVENGECYPGIAICGSGEGIGITLNKHQGIRAALCWIPEIAHLARQHNNANVLVMPGRFIDEAMADKIMTEFFTTDFEGGRHQARIDKIPVR
modifications: BpRpiB
Regarding B1, the “pH of highest activity” value (sodium phosphate buffer) stood at 7.0. Besides, the “Temperature of highest activity” value (standard reaction conditions, various temperatures) turned out to be 50 °C.
